Measured values as given in paper PMC10345229.
No constants are given. Whether binding was seen depends on the method and setting. Binding seen in cells or lysates may run through a third protein. Some binding calls cover weakened binding; strength is not graded here. For some assays here: Sequences can lack the tags named with a protein.

Chains of the proteins cited; added tags and fusions are not shown.
UniProt P23443: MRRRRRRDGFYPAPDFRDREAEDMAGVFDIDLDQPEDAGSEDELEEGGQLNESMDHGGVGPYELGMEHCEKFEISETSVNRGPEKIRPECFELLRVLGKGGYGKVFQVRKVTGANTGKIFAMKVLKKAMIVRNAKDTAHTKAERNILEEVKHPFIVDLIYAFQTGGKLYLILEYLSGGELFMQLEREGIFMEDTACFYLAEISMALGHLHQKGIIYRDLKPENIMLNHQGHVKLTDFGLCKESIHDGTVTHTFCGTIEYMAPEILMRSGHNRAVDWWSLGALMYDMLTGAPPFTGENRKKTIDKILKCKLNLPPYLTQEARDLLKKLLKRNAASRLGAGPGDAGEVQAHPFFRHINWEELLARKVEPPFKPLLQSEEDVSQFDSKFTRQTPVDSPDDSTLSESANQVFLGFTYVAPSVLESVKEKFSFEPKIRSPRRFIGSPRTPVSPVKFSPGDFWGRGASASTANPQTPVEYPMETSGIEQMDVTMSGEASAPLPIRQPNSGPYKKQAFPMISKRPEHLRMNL

T1: FLAG-PPM1H (protein phosphatase magnesium- or manganous-dependent 1H) (UniProt Q9ULR3)
T1 sequence: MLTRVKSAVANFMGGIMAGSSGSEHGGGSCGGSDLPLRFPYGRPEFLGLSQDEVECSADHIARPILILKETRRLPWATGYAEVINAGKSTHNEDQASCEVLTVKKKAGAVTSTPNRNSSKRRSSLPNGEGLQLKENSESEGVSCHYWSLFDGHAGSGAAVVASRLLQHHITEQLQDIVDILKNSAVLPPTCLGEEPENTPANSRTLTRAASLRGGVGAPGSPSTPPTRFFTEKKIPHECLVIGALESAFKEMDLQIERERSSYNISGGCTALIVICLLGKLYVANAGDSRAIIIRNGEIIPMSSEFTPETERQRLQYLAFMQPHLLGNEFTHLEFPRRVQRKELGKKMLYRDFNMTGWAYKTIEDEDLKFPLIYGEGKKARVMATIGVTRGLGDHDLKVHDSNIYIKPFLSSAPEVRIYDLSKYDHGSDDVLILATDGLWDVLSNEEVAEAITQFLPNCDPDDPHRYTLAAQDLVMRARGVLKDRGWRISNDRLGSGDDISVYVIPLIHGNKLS

B1: PPM1H, endogenous (enzyme, UniProt Q9ULR3 1-514)
chain: T1 sequence

Columns and labels:
[1] = biological target: T1, FLAG-PPM1H (protein phosphatase magnesium- or manganous-dependent 1H); test: co-IP; RIPA lysates of transfected Hep-G2 or Huh-7 cells, serum-free overnight, with or without insulin (10 ug/mL, 2 h before harvest); specific or isotype control antibody at 4 °C overnight, Protein A/G Plus-agarose 2 h, PBS washes, immunoblot
[2] = biological target: FLAG-RPS6KB1 (ribosomal protein S6 kinase B1) (UniProt P23443); test: as above

Molecule | binding [1] | binding [2]
ribosomal protein S6 kinase B1 (RPS6KB1), endogenous (from UniProt P23443 1-525) (enzyme) | binds | –
B1 | – | binds
